The values that follow come from the supplement of paper PMC12823440, “Inhibitors supercharge kinase turnover through native proteolytic circuits” (Nature, 2025).

By UniProt entry, the sequences of proteins in these tests, tags left out. Where a name states a change or a piece, a line headed by the entry shows the natural chain unless it says otherwise.
UniProt Q00526: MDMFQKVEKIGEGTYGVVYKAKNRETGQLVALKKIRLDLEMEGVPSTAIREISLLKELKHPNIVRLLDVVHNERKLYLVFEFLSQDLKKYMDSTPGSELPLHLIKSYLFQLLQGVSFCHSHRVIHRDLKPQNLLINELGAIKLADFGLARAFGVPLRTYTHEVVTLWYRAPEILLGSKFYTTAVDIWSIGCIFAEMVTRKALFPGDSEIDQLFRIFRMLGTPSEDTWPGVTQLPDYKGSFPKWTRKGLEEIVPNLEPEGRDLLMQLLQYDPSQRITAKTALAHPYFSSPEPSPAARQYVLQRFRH
UniProt Q96KB5: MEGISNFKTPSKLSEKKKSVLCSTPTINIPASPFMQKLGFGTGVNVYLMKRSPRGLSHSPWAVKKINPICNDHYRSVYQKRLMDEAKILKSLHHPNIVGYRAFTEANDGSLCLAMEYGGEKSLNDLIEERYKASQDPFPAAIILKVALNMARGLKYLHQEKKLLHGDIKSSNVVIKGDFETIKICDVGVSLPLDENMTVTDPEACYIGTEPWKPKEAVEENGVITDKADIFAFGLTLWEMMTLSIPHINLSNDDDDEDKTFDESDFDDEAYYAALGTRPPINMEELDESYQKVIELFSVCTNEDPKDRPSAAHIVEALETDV
UniProt Q16288, whole entry, looked up: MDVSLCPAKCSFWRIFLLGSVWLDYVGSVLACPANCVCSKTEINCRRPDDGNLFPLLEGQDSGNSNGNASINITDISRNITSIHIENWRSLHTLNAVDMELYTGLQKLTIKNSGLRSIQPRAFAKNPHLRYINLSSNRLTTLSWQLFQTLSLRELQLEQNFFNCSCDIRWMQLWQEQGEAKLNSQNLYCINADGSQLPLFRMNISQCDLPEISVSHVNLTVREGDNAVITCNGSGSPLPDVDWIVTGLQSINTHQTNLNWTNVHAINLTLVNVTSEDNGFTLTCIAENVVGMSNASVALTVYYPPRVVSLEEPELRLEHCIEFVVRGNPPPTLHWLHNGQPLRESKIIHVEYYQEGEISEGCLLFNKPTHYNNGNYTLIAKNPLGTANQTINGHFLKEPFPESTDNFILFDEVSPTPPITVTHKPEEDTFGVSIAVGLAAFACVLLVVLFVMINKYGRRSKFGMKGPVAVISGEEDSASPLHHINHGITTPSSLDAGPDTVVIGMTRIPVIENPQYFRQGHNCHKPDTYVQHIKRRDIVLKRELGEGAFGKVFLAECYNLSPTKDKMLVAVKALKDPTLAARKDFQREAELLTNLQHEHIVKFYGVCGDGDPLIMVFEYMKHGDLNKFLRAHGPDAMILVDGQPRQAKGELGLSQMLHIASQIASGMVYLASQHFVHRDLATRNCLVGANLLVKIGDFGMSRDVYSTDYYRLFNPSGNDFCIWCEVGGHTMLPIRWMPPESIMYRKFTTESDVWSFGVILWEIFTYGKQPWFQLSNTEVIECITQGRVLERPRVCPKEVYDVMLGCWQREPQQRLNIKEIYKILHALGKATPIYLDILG
UniProt Q92630: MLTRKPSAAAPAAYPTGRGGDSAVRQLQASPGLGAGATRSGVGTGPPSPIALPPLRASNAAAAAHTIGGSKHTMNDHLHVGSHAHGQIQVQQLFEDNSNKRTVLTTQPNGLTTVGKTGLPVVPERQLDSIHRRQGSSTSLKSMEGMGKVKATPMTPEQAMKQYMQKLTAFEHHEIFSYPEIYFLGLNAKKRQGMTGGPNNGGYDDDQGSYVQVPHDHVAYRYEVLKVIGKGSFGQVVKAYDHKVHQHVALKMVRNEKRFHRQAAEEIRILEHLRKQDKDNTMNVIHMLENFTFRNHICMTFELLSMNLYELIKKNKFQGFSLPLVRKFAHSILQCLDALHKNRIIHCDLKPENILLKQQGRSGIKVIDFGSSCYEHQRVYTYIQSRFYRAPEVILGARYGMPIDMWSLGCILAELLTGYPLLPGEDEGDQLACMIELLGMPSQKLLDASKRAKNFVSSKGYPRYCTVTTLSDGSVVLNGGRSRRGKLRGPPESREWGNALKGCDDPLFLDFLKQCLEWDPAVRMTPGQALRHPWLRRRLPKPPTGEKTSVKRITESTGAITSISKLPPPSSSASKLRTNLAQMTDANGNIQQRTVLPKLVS
UniProt P06241, whole entry, looked up: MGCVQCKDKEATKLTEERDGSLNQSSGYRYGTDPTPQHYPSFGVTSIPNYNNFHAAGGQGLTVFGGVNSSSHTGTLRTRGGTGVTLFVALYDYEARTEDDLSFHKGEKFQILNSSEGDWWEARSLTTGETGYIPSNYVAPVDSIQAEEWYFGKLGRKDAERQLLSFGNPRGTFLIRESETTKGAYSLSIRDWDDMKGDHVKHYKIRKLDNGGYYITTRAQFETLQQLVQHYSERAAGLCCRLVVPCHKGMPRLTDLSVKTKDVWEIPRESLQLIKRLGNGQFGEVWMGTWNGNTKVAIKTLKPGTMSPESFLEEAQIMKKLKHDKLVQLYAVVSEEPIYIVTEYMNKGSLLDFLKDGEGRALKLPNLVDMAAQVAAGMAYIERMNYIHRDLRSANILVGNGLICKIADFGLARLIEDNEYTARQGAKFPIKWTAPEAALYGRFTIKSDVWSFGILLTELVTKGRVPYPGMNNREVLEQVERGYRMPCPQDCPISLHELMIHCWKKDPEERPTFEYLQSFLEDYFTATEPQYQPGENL
UniProt P14616: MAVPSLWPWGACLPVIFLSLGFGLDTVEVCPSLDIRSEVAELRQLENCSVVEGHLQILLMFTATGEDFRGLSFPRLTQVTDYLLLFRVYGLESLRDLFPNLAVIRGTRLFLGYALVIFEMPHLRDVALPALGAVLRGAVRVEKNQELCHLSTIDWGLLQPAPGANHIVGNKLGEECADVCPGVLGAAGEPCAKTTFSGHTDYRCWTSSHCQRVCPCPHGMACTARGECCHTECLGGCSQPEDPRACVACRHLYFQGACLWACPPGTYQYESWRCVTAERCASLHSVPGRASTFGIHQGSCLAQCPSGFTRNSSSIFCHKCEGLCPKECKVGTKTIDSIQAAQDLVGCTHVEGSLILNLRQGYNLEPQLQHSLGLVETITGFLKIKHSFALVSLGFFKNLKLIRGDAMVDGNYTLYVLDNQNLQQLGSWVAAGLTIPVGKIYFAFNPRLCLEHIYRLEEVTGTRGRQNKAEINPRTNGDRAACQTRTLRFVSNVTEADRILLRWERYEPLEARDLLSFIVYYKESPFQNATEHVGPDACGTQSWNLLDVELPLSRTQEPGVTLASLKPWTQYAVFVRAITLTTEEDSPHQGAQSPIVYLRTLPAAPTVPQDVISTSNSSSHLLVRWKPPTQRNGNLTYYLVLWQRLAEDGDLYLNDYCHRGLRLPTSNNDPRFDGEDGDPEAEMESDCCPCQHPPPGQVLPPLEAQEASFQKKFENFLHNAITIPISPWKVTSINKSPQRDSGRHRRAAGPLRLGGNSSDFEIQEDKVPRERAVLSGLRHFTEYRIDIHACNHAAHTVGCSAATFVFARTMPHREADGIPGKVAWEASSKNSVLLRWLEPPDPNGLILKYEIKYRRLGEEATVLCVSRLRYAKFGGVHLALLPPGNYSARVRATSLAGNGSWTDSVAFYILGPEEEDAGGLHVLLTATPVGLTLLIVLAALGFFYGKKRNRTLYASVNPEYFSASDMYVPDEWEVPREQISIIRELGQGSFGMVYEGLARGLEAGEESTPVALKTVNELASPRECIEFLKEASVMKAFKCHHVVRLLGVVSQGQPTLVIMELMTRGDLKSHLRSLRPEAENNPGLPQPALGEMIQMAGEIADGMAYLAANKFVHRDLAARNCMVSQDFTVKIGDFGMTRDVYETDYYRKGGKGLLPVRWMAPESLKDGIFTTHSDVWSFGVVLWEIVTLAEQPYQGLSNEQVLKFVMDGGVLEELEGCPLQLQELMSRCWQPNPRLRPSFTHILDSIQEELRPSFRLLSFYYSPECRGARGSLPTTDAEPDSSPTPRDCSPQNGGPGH
UniProt Q9BUB5: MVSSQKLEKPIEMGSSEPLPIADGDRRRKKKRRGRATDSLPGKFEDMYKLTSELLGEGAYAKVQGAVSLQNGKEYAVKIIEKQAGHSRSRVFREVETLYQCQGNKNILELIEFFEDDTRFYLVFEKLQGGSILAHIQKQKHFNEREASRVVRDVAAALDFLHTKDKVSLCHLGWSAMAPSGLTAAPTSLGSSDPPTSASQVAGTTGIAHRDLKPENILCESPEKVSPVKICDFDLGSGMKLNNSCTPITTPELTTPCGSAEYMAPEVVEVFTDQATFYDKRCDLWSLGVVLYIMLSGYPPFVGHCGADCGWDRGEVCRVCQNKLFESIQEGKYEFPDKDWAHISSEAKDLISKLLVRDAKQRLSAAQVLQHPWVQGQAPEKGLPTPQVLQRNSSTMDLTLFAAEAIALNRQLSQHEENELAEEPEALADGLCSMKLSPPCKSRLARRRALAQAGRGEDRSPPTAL
UniProt Q9UQM7, whole entry: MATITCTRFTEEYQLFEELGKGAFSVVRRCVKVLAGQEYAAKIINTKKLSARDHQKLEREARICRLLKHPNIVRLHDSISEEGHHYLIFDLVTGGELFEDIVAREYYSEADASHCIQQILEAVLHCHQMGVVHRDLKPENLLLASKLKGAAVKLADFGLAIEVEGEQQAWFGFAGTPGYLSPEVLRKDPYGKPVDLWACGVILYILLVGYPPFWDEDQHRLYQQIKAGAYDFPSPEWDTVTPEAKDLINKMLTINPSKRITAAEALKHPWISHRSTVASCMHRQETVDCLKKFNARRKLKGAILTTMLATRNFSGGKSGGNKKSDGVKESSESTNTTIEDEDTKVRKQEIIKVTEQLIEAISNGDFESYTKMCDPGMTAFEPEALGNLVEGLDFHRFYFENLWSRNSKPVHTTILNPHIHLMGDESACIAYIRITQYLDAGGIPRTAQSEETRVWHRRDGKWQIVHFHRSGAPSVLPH
UniProt P22607, whole entry, looked up: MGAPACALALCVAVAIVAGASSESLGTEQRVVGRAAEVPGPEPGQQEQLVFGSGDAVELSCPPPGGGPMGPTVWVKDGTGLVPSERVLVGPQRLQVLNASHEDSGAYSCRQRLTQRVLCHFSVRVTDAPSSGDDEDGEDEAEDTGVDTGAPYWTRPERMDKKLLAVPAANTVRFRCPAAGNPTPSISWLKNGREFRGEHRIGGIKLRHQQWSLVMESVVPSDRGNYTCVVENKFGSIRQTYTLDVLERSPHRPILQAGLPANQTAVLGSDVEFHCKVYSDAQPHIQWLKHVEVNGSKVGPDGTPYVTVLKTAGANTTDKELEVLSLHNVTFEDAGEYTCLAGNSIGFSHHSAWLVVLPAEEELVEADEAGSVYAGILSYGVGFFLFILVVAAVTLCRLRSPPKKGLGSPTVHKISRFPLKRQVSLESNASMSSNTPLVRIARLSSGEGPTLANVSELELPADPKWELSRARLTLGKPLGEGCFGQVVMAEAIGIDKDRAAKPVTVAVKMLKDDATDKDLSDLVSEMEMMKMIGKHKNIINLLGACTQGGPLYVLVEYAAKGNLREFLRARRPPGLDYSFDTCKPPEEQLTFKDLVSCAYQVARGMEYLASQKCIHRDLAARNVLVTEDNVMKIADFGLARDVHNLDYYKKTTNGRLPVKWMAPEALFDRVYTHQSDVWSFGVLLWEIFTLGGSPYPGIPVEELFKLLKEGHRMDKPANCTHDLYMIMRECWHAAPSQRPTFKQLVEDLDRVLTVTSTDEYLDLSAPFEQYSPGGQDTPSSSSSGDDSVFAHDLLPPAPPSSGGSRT
UniProt Q00534, whole entry: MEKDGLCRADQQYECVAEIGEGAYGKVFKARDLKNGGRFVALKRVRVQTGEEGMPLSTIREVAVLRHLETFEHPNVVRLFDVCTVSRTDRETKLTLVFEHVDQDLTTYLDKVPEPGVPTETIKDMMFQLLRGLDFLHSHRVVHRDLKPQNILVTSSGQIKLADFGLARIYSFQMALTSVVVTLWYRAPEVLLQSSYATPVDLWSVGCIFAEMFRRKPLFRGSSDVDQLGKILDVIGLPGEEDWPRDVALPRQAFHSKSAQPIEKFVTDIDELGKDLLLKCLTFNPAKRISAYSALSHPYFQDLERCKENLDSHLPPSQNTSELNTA
UniProt O15530: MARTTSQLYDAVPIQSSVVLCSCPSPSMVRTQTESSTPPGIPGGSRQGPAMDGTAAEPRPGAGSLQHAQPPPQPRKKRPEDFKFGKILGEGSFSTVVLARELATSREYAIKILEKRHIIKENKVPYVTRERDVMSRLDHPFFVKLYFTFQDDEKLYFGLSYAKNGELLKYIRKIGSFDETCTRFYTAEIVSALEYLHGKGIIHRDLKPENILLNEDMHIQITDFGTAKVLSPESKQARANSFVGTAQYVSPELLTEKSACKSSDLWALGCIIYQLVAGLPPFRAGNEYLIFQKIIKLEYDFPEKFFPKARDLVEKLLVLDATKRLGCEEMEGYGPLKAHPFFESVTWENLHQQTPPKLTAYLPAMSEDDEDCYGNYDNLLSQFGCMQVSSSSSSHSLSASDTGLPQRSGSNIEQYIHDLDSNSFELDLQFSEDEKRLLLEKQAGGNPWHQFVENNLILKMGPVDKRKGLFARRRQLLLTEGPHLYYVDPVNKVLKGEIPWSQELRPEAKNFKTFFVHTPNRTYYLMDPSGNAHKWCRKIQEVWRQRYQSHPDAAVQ

This is one part of the list. The calls rarely recur for the same compound in another form.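 Kinases were expressed as nanoluciferase fusions in K562 cells and luminescence was read every 4 h between 2 and 18 h as percent of control, DMSO set to 100% and a positive control to 0%. A time point counts as decreased when the signal drops significantly (2 sigma). The hit call is the authors' own, does not follow from the count of time points alone, and its rule is not shown.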

Compound in one assay: O=S(=O)(c1cccc2c(O)nccc12)N1CCCNCC1 [Hydroxyfasudil]
Put plainly: number of time points (of 5) at which kinase-Nluc abundance scored as decreased, DMSO-normalised (count); higher = more persistent destabilization. The settings on record: 10 µM; K562; 2-18 h.
Turning to CDK3 (UniProt Q00526), the “number of time points” value came out at 0.
The same measure, in the same setting: to JAK1 (UniProt P23458) belongs 0; to ZAK (UniProt Q9NYL2), 0; to ERN1 (UniProt O75460), 0.
Regarding PBK (UniProt Q96KB5), the “number of time points” value came to 0.
As to NTRK3 (UniProt Q16288), the “number of time points” value is 0.
Still for that read-out and setting: for AURKA (UniProt O14965) the value was 0; for MAP2K2 (UniProt P36507), 0; for IRAK3 (UniProt Q9Y616), 0.
Still for that read-out and setting: for YES1 (UniProt P07947) the value was 0.
Still for that read-out and setting: to ULK3 (UniProt Q6PHR2) belongs 0.
For BTK (UniProt Q06187), the “number of time points” value is 0.
Still for that read-out and setting: to DYRK2 (UniProt Q92630) belongs 0; to FYN (UniProt P06241), 0.
In the case of FGR (UniProt P09769), the “number of time points” value was 0.
Still for that read-out and setting: to AKT1 (UniProt P31749) belongs 0; to DDR1 (UniProt Q08345), 0.
On the same count and under the same terms, for INSRR (UniProt P14616) the value was 0.
Regarding CSF1R (UniProt P07333), the “number of time points” value stood at 0.
On the same count and under the same terms, for LMTK2 (UniProt Q8IWU2) the value was 0; for MKNK1 (UniProt Q9BUB5), 0; for CAMK2A (UniProt Q9UQM7), 0.
Same read-out and setting: for FGFR2 (UniProt P21802) the value was 0; for BRAF_V600E, 0.
The same measure, in the same setting: for “RET_M918T (clone: RET_mut) (UniProt P07949)” the value was 0; for GSK3A (UniProt P49840), 0.
On to SPHK1 (UniProt Q9NYA1), for which the “number of time points” value is 0.
FGFR3 (UniProt P22607): the “number of time points” value turned out to be 0.
Still for that read-out and setting: for CDK6 (UniProt Q00534) the value was 0.
On the same count and under the same terms, to PDPK1 (UniProt O15530) belongs 0.
The same measure, in the same setting: for RIOK1 (UniProt Q9BRS2) the value was 0.

Compound in another assay: O=c1ncn2nc(Sc3ccc(F)cc3F)ccc2c1-c1c(Cl)cccc1Cl [Neflamapimod]
The assay is described as above. Conditions: 10 µM; K562; 2-18 h.
Regarding CDK3 (UniProt Q00526), the “number of time points” value amounted to 0.
Still for that read-out and setting: for JAK1 (UniProt P23458) the value was 0; for ZAK (UniProt Q9NYL2), 0; for ERN1 (UniProt O75460), 0.
On the same count and under the same terms, for PBK (UniProt Q96KB5) the value was 0.
The same measure, in the same setting: for NTRK3 (UniProt Q16288) the value was 0.
For the target AURKA (UniProt O14965), the “number of time points” value amounted to 0.
Still for that read-out and setting: for MAP2K2 (UniProt P36507) the value was 0; for IRAK3 (UniProt Q9Y616), 0; for YES1 (UniProt P07947), 0.
Same read-out and setting: for ULK3 (UniProt Q6PHR2) the value was 0; for BTK (UniProt Q06187), 0; for DYRK2 (UniProt Q92630), 0.
Still for that read-out and setting: to FYN (UniProt P06241) belongs 0; to FGR (UniProt P09769), 0; to AKT1 (UniProt P31749), 0.
With DDR1 (UniProt Q08345), the “number of time points” value is 0.
On the same count and under the same terms, to INSRR (UniProt P14616) belongs 0.
Consider CSF1R (UniProt P07333), for which the “number of time points” value is 0.
For LMTK2 (UniProt Q8IWU2), the “number of time points” value was found to be 0.
On the same count and under the same terms, to MKNK1 (UniProt Q9BUB5) belongs 0; to CAMK2A (UniProt Q9UQM7), 0; to FGFR2 (UniProt P21802), 0.
The same measure, in the same setting: for BRAF_V600E the value was 0.
On the same count and under the same terms, for “RET_M918T (clone: RET_mut) (UniProt P07949)” the value was 0.
In the case of GSK3A (UniProt P49840), the “number of time points” value is 0.
Same read-out and setting: for SPHK1 (UniProt Q9NYA1) the value was 0; for FGFR3 (UniProt P22607), 0.
Still for that read-out and setting: to CDK6 (UniProt Q00534) belongs 0.
Turning to PDPK1 (UniProt O15530), the “number of time points” value is 0.
On the same count and under the same terms, for RIOK1 (UniProt Q9BRS2) the value was 0.
